From article PMC10741529
No constants are given. Whether binding was seen depends on the method and setting. Binding seen in cells or lysates may run through a third protein. A result given as binding can be weak or reduced; the word gives no strength. Values belong to the molecule of their own block, whether it stands above or below them.

Amino acid sequences for entries named in this document (tags omitted). A change or cut given only in a name is not applied to a line headed by its entry.
UniProt Q8WYQ3: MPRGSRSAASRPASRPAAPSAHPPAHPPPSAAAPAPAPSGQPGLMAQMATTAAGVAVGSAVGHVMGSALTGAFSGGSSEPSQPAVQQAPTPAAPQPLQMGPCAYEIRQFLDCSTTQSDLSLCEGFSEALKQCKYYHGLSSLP
UniProt Q99MQ3: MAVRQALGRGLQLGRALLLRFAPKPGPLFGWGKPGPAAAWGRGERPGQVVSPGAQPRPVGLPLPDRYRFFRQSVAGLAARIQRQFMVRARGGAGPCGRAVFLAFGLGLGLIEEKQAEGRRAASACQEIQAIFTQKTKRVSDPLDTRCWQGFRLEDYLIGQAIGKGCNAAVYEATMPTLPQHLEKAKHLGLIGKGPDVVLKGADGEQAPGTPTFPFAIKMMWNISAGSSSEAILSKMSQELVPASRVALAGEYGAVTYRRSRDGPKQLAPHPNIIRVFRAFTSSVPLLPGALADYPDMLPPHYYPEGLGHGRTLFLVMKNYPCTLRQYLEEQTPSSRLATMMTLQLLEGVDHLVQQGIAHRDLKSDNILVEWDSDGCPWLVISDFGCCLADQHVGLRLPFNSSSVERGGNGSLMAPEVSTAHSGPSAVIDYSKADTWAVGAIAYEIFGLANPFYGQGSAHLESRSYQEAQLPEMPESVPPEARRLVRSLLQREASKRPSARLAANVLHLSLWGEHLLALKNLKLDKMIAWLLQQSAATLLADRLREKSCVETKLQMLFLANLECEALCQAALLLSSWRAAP

How the values were obtained:
[1] = molecular target: Flag-CHCHD10^WT (wild-type coiled-coil-helix-coiled-coil-helix domain-containing 10) (human) (UniProt Q8WYQ3); assay: proximity ligation; HT22 cells transfected with Flag-CHCHD10 variants, after CCCP (1 mM, 12 h); fixed cells, anti-PINK1 + M2 Flag antibodies, Duolink probes
[2] = molecular target: Flag-CHCHD10^S59L (human) (UniProt Q8WYQ3); assay: proximity ligation; HT22 cells transfected with Flag-CHCHD10 variants, with and without CCCP (1 mM, 12 h); fixed cells, anti-PARL + M2 Flag antibodies, Duolink probes
[3] = molecular target: Flag-CHCHD10^WT (wild-type coiled-coil-helix-coiled-coil-helix domain-containing 10) (human) (UniProt Q8WYQ3); assay: as above
[4] = molecular target: Flag-CHCHD10^R15L (human) (UniProt Q8WYQ3); assay: as above

binding [1]: binds
Molecule: PTEN-induced kinase 1 (PINK1), endogenous in HT22 cells (from UniProt Q99MQ3 78-580) (enzyme)

binding [2]: binds
binding [3]: binds
binding [4]: binds
B1: presenilin-associated rhomboid-like protein (PARL), endogenous in HT22 cells (enzyme, UniProt Q5XJY4 51-377)
chain: FRKAPRKVEPRRSDTGSSGEAYKRSALIPPLEETVFYPSPYPIRTLVKPFFFTIGFTGCAFGSAAIWQYESLKSRVQSYFDGIKADWLDSIRPQKEGNLRKEINKWWNSLSDGQRTVTGIIAANALVFCLWRVPSLQRTMIRYFTSNPASKVLCSPMLLSTFSHFSLFHMAANMYVLWSFSSSIVNILGQEQFVAVYLSAGVISNFVSYVCKVATGRYGPSLGASGAIMTVLAAVCTKIPEGRLAIIFLPVFTFTAGNALKAIIAMDTAGMILGWKFFDHAAHLGGALFGIWYITYGHELIWKNREPLVKIWHEIRTNGPKKGGGSK
